Test results from publication PMC3427372, “Proteomic Analysis Reveals New Cardiac-Specific Dystrophin-Associated Proteins” (PLoS ONE, 2012).

The chains behind the UniProt entries cited, without tags or fusion partners.
UniProt P11531: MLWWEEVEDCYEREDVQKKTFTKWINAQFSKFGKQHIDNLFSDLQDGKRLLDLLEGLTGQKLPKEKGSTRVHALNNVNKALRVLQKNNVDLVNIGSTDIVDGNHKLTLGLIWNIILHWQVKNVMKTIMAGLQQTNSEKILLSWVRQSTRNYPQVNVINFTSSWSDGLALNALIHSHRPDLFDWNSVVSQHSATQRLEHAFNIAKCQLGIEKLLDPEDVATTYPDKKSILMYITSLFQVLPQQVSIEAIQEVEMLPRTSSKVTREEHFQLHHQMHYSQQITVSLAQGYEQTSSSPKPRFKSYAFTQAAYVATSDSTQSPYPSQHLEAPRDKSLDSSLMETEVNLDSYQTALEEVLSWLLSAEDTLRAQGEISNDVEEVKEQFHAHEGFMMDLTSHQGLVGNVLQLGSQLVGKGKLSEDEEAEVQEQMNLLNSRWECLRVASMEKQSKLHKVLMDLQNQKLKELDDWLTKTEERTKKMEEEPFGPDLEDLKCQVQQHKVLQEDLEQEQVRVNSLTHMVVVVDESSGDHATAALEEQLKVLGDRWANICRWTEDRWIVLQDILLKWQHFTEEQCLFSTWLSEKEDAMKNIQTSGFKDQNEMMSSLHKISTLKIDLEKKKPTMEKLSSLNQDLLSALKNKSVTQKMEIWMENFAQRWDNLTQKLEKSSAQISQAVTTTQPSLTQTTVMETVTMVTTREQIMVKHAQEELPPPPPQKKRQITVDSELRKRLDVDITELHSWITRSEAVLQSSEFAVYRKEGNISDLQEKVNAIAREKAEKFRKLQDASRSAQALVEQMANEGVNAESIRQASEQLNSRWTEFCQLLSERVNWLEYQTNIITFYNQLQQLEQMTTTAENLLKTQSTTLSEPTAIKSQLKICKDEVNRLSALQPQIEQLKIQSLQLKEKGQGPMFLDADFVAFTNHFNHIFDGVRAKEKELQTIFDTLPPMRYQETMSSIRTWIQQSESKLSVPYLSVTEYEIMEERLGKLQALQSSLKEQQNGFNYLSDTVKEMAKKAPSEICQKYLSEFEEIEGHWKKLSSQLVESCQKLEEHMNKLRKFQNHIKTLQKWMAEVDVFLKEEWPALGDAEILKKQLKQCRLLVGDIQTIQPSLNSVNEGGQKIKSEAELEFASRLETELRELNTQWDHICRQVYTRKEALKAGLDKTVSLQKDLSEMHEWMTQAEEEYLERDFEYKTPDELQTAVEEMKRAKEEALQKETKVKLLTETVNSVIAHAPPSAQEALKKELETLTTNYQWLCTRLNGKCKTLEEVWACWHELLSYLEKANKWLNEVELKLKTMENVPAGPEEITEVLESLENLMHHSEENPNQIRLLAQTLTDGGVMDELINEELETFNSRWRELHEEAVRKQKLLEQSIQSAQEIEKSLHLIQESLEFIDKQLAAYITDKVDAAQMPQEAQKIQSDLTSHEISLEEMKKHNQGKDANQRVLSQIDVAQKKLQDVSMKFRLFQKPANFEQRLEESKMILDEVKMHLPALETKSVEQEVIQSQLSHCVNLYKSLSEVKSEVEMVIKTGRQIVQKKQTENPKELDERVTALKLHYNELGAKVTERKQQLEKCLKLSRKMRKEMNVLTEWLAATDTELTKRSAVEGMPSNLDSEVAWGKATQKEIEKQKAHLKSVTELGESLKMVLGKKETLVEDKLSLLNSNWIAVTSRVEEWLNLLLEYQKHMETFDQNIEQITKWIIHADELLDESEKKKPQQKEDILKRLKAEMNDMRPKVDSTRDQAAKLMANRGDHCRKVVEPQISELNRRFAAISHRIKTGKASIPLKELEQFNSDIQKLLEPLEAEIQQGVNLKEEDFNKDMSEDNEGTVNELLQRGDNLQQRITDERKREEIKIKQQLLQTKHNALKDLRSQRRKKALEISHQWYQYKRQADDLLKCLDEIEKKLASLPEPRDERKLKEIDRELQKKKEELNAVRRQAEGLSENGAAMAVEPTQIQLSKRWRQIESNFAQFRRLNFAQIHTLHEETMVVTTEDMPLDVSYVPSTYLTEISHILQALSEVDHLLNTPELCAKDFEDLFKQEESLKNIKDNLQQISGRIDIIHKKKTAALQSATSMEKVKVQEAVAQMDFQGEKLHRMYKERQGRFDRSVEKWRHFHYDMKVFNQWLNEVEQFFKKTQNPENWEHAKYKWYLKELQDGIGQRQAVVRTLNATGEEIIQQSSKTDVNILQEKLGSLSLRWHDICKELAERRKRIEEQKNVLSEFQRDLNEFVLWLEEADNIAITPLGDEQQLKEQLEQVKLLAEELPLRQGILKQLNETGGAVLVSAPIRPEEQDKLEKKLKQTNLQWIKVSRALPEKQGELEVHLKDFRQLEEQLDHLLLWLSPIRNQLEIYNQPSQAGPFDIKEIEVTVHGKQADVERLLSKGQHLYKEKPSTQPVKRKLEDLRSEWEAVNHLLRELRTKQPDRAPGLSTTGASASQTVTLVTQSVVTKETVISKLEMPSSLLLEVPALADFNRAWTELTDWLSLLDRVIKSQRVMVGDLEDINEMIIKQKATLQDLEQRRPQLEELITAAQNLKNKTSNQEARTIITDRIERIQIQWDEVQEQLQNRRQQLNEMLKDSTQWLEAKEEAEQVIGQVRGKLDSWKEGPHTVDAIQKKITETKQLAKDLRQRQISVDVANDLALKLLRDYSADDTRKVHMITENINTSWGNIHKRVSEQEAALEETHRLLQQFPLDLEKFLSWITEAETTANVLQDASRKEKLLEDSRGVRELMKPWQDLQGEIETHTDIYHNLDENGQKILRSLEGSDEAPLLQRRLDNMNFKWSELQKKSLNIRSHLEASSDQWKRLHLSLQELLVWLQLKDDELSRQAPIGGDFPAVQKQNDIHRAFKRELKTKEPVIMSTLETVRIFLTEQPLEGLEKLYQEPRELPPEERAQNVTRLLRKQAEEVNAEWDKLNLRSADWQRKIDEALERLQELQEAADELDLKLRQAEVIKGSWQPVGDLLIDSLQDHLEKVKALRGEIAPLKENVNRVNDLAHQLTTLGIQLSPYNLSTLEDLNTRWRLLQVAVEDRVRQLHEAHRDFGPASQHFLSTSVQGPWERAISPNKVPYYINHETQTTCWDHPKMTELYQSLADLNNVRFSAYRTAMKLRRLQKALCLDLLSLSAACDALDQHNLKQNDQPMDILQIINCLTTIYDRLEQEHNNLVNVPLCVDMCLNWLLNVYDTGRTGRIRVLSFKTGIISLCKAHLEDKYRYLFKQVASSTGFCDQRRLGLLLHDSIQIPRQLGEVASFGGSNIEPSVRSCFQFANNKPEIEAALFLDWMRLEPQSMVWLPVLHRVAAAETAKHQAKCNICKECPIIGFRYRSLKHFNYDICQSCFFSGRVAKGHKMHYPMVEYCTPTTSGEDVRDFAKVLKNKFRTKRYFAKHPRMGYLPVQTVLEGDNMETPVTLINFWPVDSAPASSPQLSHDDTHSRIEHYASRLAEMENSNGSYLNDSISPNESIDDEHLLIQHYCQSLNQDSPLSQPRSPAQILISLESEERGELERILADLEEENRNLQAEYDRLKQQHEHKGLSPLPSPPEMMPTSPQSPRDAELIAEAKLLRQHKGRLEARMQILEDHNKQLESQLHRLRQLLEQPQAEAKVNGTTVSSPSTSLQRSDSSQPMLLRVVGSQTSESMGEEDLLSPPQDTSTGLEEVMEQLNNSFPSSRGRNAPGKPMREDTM

Key:
[1] = molecular target: Dystrophin (mouse (endogenous in cardiac and skeletal muscle)) (UniProt P11531); assay: affinity purification with mass spectrometry; DYS-IP from wild type mouse heart (cardiac ventricles): MANDYS1 anti-dystrophin antibody cross-linked to protein G magnetic beads, 2-5 mg protein extracted in 1% digitonin, 0.05% NP-40, 150 mM NaCl, 50 mM Tris pH 7.4, 3 hr at 4°C; eluate analysed by LC-MS/MS; controls IgG-IP and MDX-IP; 3 biological replicates
[2] = molecular target: Dystrophin (mouse (endogenous in cardiac and skeletal muscle)) (UniProt P11531); assay: affinity purification with mass spectrometry; DYS-IP from wild type mouse skeletal muscle (quadriceps): MANDYS1 anti-dystrophin antibody cross-linked to protein G magnetic beads, 2-5 mg protein extracted in 1% digitonin, 0.05% NP-40, 150 mM NaCl, 50 mM Tris pH 7.4, 3 hr at 4°C; eluate analysed by LC-MS/MS; controls IgG-IP and MDX-IP; 3 biological replicates

binding [1]	binding [2]	Binder
binds	binds	β1-Syntrophin (natural protein, UniProt Q99L88 1-537, looked up, β1-syntrophin, mouse; source: endogenous, mouse cardiac ventricle and skeletal muscle (quadriceps) lysate) MAVAAAAVAAPAGGGGARAQRSGLLEVLVRDRWHKVLVNLSEDALVLSCEEGAAAYNGIGAATNGSFCRGSGTGHPVPGVAQAPDSPAGVRTAFTDLPEQVPESISNQKRGVKVLKQELGGLGISIKGGKENKMPILISKIFKGLAADQTQALYVGDAILSVNGADLRDATHDEAVQALKRAGKEVLLEVKYMREATPYVKKGSPVSEIGWETPPPESPRLGGGSAEPLSSQSFSFHRDRKSIPLKMCYVTRNMTLADPENRQLEIHSPDAKHTVILRSKDSATAQAWFSAIHSNAGDLLTRVVADIREQLGKTGIAGSREIRHLGWLAEKVPGESEKQWKPALVVLTEKDLLIYDSMPRRKEAWFSPVHSYPLLATRLVHSGPGKGSPQAGMDLSFATRTGTKQGIETHLFRAEISRDLSHWTRSIVQGCHNSAELTAEITTACTYRNQECRLTIHYDNGFSISTEPQDGAFPKTIIQSPYEKLKMSSDDGIRMLYLDFGGKEGEIQLDLHSCPKPIVFIIHSFLSAKITRLGLVA
binds	binds	α1-Syntrophin (protein, UniProt Q61234 1-503) MASGRRAPRTGLLELRCGAGSGAGGERWQRVLLSLAEDALTVSPADGEPGPEPEPAQLNGAAEPGAAPPQLPEALLLQRRRVTVRKADAGGLGISIKGGRENKMPILISKIFKGLAADQTEALFVGDAILSVNGEDLSSATHDEAVQALKKTGKEVVLEVKYMKEVSPYFKNSAGGTSVGWDSPPASPLQRQPSSPGPQPRNLSEAKHVSLKMAYVSRRCTPTDPEPRYLEICAADGQDAVFLRAKDEASARSWAGAIQAQIGTFIPWVKDELQALLTATGTAGSQDIKQIGWLTEQLPSGGTAPTLALLTEKELLFYCSLPQSREALSRPTRTAPLIATSSAHRLVHSGPSKGSVPYDAELSFALRTGTRHGVDTHLFSVESPQELAAWTRQLVDGCHRAAEGIQEVSTACTWNGRPCSLSVHIDKGFTLWAAEPGAARAMLLRQPFEKLQMSSDDGTSLLFLDFGGAEGEIQLDLHSCPKTMVFIIHSFLSAKVTRLGLLA

Results are given in words; binding and its absence hold for the method and conditions named. Binding seen in cells or lysates may run through a third protein. Here binding means that the protein was enriched with, or labelled near, the bait; the list need not be complete.
